The list shows a part of the results.
Assays:
Experiment in all cases: log2 fold change, soluble protein after heating vs DMSO (PISA); higher = thermal stabilisation; K562 cells, 10 uM, 30 min; active = over 0.2 and 3.5 SD of the protein, either way, in both replicates (recomputed)
[1] = compound: Cc1ccc(NC(=O)c2ccc(CN3CC[C@H](N(C)C)C3)c(C(F)(F)F)c2)cc1Nc1nccc(-c2cncnc2)n1 [bafetinib]
Outline: (§1)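 K562 cells (2×10^6 cells/mL) were treated with 10 μM compound for 30 min, and aliquots were heated for 3 min over 48°C-58°C. Pooled aliquots were extracted in PBS with 0.5% NP-40 at 4°C, and the supernatant after 21,000xg for 90 min was measured by TMTpro 16plex LC-MS/MS with channel sums equalised. Reported thermal stability, relative to control samples and from duplicates, is a log2 fold change.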

Amino acid sequences for entries named in this document (tags omitted). A change or cut given only in a name is not applied to a line headed by its entry.
UniProt Q9H0G5: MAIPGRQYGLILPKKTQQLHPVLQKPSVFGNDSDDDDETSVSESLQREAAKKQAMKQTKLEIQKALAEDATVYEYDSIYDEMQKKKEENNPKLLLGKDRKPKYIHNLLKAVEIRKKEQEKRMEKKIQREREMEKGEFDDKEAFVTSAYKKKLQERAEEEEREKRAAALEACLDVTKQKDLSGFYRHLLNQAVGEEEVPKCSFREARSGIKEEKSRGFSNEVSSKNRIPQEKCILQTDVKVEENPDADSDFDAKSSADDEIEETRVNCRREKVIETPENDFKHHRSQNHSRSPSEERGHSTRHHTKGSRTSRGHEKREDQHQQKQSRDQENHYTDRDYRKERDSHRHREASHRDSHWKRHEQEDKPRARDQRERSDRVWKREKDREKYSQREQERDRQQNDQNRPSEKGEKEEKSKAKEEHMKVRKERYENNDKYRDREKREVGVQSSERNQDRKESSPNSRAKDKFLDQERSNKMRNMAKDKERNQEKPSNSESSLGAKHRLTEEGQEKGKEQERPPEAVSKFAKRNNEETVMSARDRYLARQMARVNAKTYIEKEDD
UniProt Q9BW27: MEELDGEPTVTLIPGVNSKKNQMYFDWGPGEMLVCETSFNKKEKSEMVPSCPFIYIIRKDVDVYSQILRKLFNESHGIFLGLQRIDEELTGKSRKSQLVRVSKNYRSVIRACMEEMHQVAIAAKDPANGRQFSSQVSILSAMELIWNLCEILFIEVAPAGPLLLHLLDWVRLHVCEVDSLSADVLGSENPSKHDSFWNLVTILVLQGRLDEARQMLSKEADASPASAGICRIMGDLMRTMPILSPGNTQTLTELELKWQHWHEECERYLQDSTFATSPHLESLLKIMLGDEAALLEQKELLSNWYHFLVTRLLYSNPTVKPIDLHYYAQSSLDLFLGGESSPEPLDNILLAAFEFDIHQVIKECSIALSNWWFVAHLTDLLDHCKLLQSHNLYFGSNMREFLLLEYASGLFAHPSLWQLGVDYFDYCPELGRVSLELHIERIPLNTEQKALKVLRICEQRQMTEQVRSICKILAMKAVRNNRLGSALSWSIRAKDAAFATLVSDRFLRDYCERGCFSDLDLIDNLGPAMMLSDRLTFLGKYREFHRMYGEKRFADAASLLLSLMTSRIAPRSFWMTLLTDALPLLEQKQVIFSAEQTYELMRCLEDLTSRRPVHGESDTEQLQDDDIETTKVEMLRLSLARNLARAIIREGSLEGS
UniProt Q9BRJ7: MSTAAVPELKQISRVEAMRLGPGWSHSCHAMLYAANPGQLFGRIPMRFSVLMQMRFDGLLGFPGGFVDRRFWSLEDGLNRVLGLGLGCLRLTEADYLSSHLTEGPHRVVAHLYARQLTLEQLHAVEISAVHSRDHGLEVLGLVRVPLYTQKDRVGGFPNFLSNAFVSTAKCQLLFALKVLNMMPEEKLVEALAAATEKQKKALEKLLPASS
UniProt Q92882: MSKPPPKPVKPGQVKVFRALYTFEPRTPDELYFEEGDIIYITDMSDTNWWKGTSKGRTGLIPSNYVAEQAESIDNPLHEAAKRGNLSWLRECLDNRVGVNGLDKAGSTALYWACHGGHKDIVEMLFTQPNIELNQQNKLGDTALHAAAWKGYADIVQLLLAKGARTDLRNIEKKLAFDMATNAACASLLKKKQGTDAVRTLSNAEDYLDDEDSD
UniProt Q8N6M0: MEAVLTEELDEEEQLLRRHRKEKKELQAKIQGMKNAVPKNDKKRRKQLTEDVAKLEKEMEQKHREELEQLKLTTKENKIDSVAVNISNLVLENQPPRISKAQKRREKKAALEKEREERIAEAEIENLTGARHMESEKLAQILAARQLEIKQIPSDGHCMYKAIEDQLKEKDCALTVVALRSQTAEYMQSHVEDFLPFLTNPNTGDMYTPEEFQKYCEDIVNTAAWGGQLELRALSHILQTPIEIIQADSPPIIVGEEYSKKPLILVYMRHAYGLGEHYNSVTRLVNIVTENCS
UniProt Q86WC4: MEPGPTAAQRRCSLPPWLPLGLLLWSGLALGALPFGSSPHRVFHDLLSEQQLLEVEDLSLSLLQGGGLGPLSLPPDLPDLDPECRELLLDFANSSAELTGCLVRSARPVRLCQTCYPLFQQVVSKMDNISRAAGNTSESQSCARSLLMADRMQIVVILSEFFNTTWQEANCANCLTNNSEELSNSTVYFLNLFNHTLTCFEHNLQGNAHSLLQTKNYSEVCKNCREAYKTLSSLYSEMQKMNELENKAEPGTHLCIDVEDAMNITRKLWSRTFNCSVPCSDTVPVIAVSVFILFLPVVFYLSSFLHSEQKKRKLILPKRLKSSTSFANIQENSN
UniProt P49757: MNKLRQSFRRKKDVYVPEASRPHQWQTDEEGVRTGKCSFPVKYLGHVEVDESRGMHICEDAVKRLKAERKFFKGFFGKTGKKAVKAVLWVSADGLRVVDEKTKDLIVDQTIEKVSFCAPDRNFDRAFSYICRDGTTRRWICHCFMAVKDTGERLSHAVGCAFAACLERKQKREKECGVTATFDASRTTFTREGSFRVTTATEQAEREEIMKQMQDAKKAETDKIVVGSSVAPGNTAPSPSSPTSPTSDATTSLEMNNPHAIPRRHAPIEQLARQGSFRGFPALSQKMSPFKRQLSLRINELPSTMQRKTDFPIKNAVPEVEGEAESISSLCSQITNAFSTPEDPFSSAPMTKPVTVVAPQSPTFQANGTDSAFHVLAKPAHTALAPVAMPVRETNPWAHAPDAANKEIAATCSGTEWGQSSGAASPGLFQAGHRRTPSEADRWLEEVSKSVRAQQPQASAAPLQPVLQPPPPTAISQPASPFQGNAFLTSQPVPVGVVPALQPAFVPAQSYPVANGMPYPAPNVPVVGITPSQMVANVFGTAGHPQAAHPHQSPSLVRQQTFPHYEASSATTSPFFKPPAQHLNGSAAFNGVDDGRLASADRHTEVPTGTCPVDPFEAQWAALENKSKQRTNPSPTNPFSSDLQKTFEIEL

[2] = compound: Cc1cccc(CC(=O)N2CCc3c2ccc(-c2cn(C)c4ncnc(N)c24)c3F)n1
Outline: as §1

[3] = compound: Cc1cn(-c2cc(NC(=O)c3ccc(C)c(Nc4nccc(-c5cccnc5)n4)c3)cc(C(F)(F)F)c2)cn1 [nilotinib]
Outline: as §1

[4] = compound: Cc1nc(Nc2n[nH]c3c2CN(C(=O)N[C@H](CN(C)C)c2ccccc2)C3(C)C)c2sccc2n1
Outline: as §1

[5] = compound: Cc1nc(Nc2ncc(C(=O)Nc3c(C)cccc3Cl)s2)cc(N2CCN(CCO)CC2)n1 [dasatinib]
Outline: as §1

[6] = compound: Cc1ncc(-c2ccnc(Nc3ccc(S(C)(=O)=O)cc3)n2)n1C(C)C
Outline: as §1

[7] = compound: Cn1cc(-c2ccc3c(c2)CCN3C(=O)Cc2cccc(C(F)(F)F)c2)c2c(N)ncnc21
Outline: as §1

[8] = compound: Cn1cc(-c2ccc3nnc(C(F)(F)c4ccc5ncccc5c4)n3n2)cn1
Outline: as §1

[9] = compound: Cn1cncc1[C@@](N)(c1ccc(Cl)cc1)c1ccc2c(c1)c(-c1cccc(Cl)c1)cc(=O)n2C [tipifarnib]
Outline: as §1

[10] = compound: FC(F)(F)c1ccc(/C=C/c2nc(COc3ccc(CCCCn4ccnn4)cc3)co2)cc1 [mubritinib]
Outline: as §1

[11] = compound: NC(=O)Nc1cc(-c2cccc(F)c2)sc1C(=O)N[C@H]1CCCNC1
Outline: as §1

[12] = compound: NC(=O)c1cnc(N[C@@H]2CCCC[C@@H]2N)nc1Nc1cccc(-n2nccn2)c1
Outline: as §1

[13] = compound: NC1(c2ccc(-c3nc4ccn5c(=O)[nH]nc5c4cc3-c3ccccc3)cc2)CCC1
Outline: as §1

[14] = compound: NCC(=O)Nc1ccc(-n2nc(C(F)(F)F)cc2-c2ccc3c(ccc4ccccc43)c2)cc1
Outline: as §1

[15] = compound: Nc1ccccc1NC(=O)c1ccc(CNC(=O)OCc2cccnc2)cc1 [entinostat]
Outline: as §1

[16] = compound: O=C(CCCCCCC(=O)Nc1ccccc1)NO [vorinostat]
Outline: as §1

[17] = compound: O=C(CCCCCCNC(=O)c1cnc(N(c2ccccc2)c2ccccc2Cl)nc1)NO [citarinostat]
Outline: as §1

[18] = compound: O=C(O)c1ccc2c(c1)nc(Nc1cccc(Cl)c1)c1ccncc12 [silmitasertib]
Outline: as §1

[19] = compound: O=C1NC(=O)C(c2cnc3ccccn23)=C1c1cn2c3c(cc(F)cc13)CN(C(=O)N1CCCCC1)CC2
Outline: as §1

[20] = compound: c1cc(OCCN2CCCCC2)cc(-c2n[nH]c3ccc(-c4nnc[nH]4)cc23)c1
Outline: as §1

Measured: log2 fold change

NSRP1 (UniProt Q9H0G5)
inactive: [1] -0.15 | [2] -0.008 | [3] 0.033 | [4] -0.255 | [5] 0.089 | [6] -0.108 | [7] -0.084 | [8] -0.1 | [9] 0.108 | [10] -0.069 | [11] 0.064 | [12] 0.071 | [13] 0.149 | [14] 0.016 | [15] -0.037 | [16] 0.002 | [17] -0.044 | [18] 0.072 | [19] 0.085 | [20] -0.164

NUP85 (UniProt Q9BW27)
inactive: [1] -0.088 | [2] 0.02 | [3] -0.027 | [4] -0.115 | [5] -0.068 | [6] -0.013 | [7] -0.009 | [8] -0.002 | [9] -0.031 | [10] 0.026 | [11] 0.01 | [12] -0.014 | [13] -0.092 | [14] -0.035 | [15] -0.011 | [16] 0.021 | [17] 0.031 | [18] 0.047 | [19] -0.041 | [20] -0.041

NUDT16L1 (UniProt Q9BRJ7)
inactive: [1] -0.015 | [2] -0.001 | [3] 0.008 | [4] 0.016 | [5] 0.024 | [6] 0.029 | [7] 0.015 | [8] 0.022 | [9] -0.032 | [10] 0.01 | [11] 0.004 | [12] 0.001 | [13] -0.063 | [14] -0.007 | [15] -0.023 | [16] -0.01 | [17] -0.015 | [18] 0.009 | [19] 0.003 | [20] -0.029

OSTF1 (UniProt Q92882)
inactive: [1] -0.085 | [2] 0.078 | [3] 0.027 | [4] 0.016 | [5] -0.066 | [6] 0.342 | [7] -0.02 | [8] 0.034 | [9] -0.069 | [10] -0.01 | [11] 0.016 | [12] -0.064 | [13] -0.115 | [14] -0.021 | [15] -0.07 | [16] -0.011 | [17] 0.031 | [18] 0.039 | [19] -0.116 | [20] -0.038

OTUD6B (UniProt Q8N6M0)
inactive: [1] -0.014 | [2] 0.105 | [3] -0.114 | [4] -0.067 | [5] -0.142 | [6] -0.031 | [7] 0.044 | [8] 0.067 | [9] -0.039 | [10] -0.02 | [11] -0.122 | [12] -0.121 | [13] -0.167 | [14] -0.064 | [15] 0.022 | [16] 0.215 | [17] -0.013 | [18] 0.059 | [19] -0.065 | [20] -0.053

OSTM1 (UniProt Q86WC4)
active: [13] -0.319
inactive: [1] -0.208 | [2] 0.091 | [3] 0.044 | [4] 0.017 | [5] -0.086 | [6] -0.068 | [7] 0.076 | [8] 0.029 | [9] 0.008 | [10] -0.048 | [11] -0.035 | [12] -0.029 | [14] 0.003 | [15] 0.006 | [16] 0.072 | [17] 0.064 | [18] 0.034 | [19] -0.037 | [20] -0.037

NUMB (UniProt P49757)
inactive: [1] -0.013 | [2] 0.022 | [3] -0.05 | [4] -0.078 | [5] 0.017 | [6] -0.12 | [7] 0.063 | [8] -0.008 | [9] 0.059 | [10] -0.053 | [11] -0.088 | [12] -0.022 | [13] -0.002 | [14] -0.003 | [15] -0.041 | [16] 0.037 | [17] 0.009 | [18] 0.007 | [19] -0.097 | [20] -0.032

NUDT5 (UniProt Q9UKK9)
inactive: [1] -0.035 | [2] -0.036 | [3] 0.039 | [4] 0.018 | [5] 0.055 | [6] 0.018 | [7] -0.011 | [8] -0.054 | [9] 0.002 | [10] 0.017 | [11] 0.061 | [12] 0.026 | [13] 0.014 | [14] 0.023 | [15] 0.007 | [16] -0.047 | [17] 0.037 | [18] -0.001 | [19] 0.019 | [20] -0.025

— the supplement of paper PMC10849652
